ChEMBL document CHEMBL4316593 (Eur J Med Chem, 2019)
The source gives many values for each of these; only a part stands here.

Assays:
Assay type in all cases: cell-based
Settings in all cases: U-87MG ATCC
[1] = Inhibition of RTK/PI3K/AKT/mTOR signaling in human U87 cells assessed as up regulation of MLLT6 gene expression at cytotoxic IC50 measured after 48 hrs relative to control
[2] = Inhibition of RTK/PI3K/AKT/mTOR signaling in human U87 cells assessed as up regulation of integrin subunit beta 5 gene expression at cytotoxic IC50 measured after 48 hrs relative to control
[3] = Inhibition of RTK/PI3K/AKT/mTOR signaling in human U87 cells assessed as up regulation of TRIP10 gene expression at cytotoxic IC50 measured after 48 hrs relative to control
[4] = Inhibition of RTK/PI3K/AKT/mTOR signaling in human U87 cells assessed as down regulation of EXOSC9 gene expression at cytotoxic IC50 measured after 48 hrs relative to control
[5] = Inhibition of RTK/PI3K/AKT/mTOR signaling in human U87 cells assessed as down regulation of CENPU gene expression at cytotoxic IC50 measured after 48 hrs relative to control
[6] = Inhibition of RTK/PI3K/AKT/mTOR signaling in human U87 cells assessed as down regulation of ZNF222 gene expression at cytotoxic IC50 measured after 48 hrs relative to control
[7] = Inhibition of RTK/PI3K/AKT/mTOR signaling in human U87 cells assessed as down regulation of RDH10 gene expression at cytotoxic IC50 measured after 48 hrs relative to control
[8] = Inhibition of RTK/PI3K/AKT/mTOR signaling in human U87 cells assessed as up regulation of CLCN3 gene expression at cytotoxic IC50 measured after 48 hrs relative to control
[9] = Inhibition of RTK/PI3K/AKT/mTOR signaling in human U87 cells assessed as up regulation of pleckstrin homology like domain family B member 2 gene expression at cytotoxic IC50 measured after 48 hrs relative to control
[10] = Inhibition of RTK/PI3K/AKT/mTOR signaling in human U87 cells assessed as down regulation of SUPT6H gene expression at cytotoxic IC50 measured after 48 hrs relative to control
[11] = Inhibition of RTK/PI3K/AKT/mTOR signaling in human U87 cells assessed as up regulation of lysine demethylase 3A gene expression at cytotoxic IC50 measured after 48 hrs relative to control
[12] = Inhibition of RTK/PI3K/AKT/mTOR signaling in human U87 cells assessed as up regulation of ADAM metallopeptidase domain 19 gene expression at cytotoxic IC50 measured after 48 hrs relative to control
[13] = Inhibition of RTK/PI3K/AKT/mTOR signaling in human U87 cells assessed as down regulation of PGM2L1 gene expression at cytotoxic IC50 measured after 48 hrs relative to control
[14] = Inhibition of RTK/PI3K/AKT/mTOR signaling in human U87 cells assessed as down regulation of GREB1L gene expression at cytotoxic IC50 measured after 48 hrs relative to control
[15] = Inhibition of RTK/PI3K/AKT/mTOR signaling in human U87 cells assessed as up regulation of protein phosphatase 1 regulatory subunit 3B gene expression at cytotoxic IC50 measured after 48 hrs relative to control
[16] = Inhibition of RTK/PI3K/AKT/mTOR signaling in human U87 cells assessed as down regulation of ASNA1 gene expression at cytotoxic IC50 measured after 48 hrs relative to control
[17] = Inhibition of RTK/PI3K/AKT/mTOR signaling in human U87 cells assessed as up regulation of PLLP gene expression at cytotoxic IC50 measured after 48 hrs relative to control
[18] = Inhibition of RTK/PI3K/AKT/mTOR signaling in human U87 cells assessed as down regulation of PCNA gene expression at cytotoxic IC50 measured after 48 hrs relative to control
[19] = Inhibition of RTK/PI3K/AKT/mTOR signaling in human U87 cells assessed as down regulation of C5orf22 gene expression at cytotoxic IC50 measured after 48 hrs relative to control
[20] = Inhibition of RTK/PI3K/AKT/mTOR signaling in human U87 cells assessed as down regulation of SKI gene expression at cytotoxic IC50 measured after 48 hrs relative to control
[21] = Inhibition of RTK/PI3K/AKT/mTOR signaling in human U87 cells assessed as down regulation of FLNA gene expression at cytotoxic IC50 measured after 48 hrs relative to control
[22] = Inhibition of RTK/PI3K/AKT/mTOR signaling in human U87 cells assessed as up regulation of ANKRD29 gene expression at cytotoxic IC50 measured after 48 hrs relative to control
[23] = Inhibition of RTK/PI3K/AKT/mTOR signaling in human U87 cells assessed as up regulation of musashi RNA binding protein 2 gene expression at cytotoxic IC50 measured after 48 hrs relative to control
[24] = Inhibition of RTK/PI3K/AKT/mTOR signaling in human U87 cells assessed as up regulation of runt related transcription factor 3 gene expression at cytotoxic IC50 measured after 48 hrs relative to control
[25] = Inhibition of RTK/PI3K/AKT/mTOR signaling in human U87 cells assessed as down regulation of PDE5A gene expression at cytotoxic IC50 measured after 48 hrs relative to control
[26] = Inhibition of RTK/PI3K/AKT/mTOR signaling in human U87 cells assessed as down regulation of RIOK3 gene expression at cytotoxic IC50 measured after 48 hrs relative to control
[27] = Inhibition of RTK/PI3K/AKT/mTOR signaling in human U87 cells assessed as down regulation of KIFC1 gene expression at cytotoxic IC50 measured after 48 hrs relative to control
[28] = Inhibition of RTK/PI3K/AKT/mTOR signaling in human U87 cells assessed as down regulation of PEX26 gene expression at cytotoxic IC50 measured after 48 hrs relative to control
[29] = Inhibition of RTK/PI3K/AKT/mTOR signaling in human U87 cells assessed as up regulation of EGF like domain multiple 7 gene expression at cytotoxic IC50 measured after 48 hrs relative to control
[30] = Inhibition of RTK/PI3K/AKT/mTOR signaling in human U87 cells assessed as down regulation of WDR26 gene expression at cytotoxic IC50 measured after 48 hrs relative to control
[31] = Inhibition of RTK/PI3K/AKT/mTOR signaling in human U87 cells assessed as up regulation of activating transcription factor 5 gene expression at cytotoxic IC50 measured after 48 hrs relative to control
[32] = Inhibition of RTK/PI3K/AKT/mTOR signaling in human U87 cells assessed as up regulation of KIRREL gene expression at cytotoxic IC50 measured after 48 hrs relative to control

SMILES: CC(=O)C(=NNc1ccccc1C#N)C(C)=O
- log2FC [1]: 0.478
- log2FC [2]: 0.831
- log2FC [3]: 0.587
- log2FC [4]: -0.731
- log2FC [5]: -1.17
- log2FC [6]: -1.59
- log2FC [7]: -1.15
- log2FC [8]: 0.525
- log2FC [9]: 1.37
- log2FC [10]: -0.541
- log2FC [11]: 1.32
- log2FC [12]: 1.28
- log2FC [13]: -0.998
- log2FC [14]: -2.17
- log2FC [15]: 1.08
- log2FC [16]: -0.692
- log2FC [17]: 2.02
- log2FC [18]: -1.42
- log2FC [19]: -0.817
- log2FC [20]: -0.728
- log2FC [21]: -0.589
- log2FC [22]: 1.62
- log2FC [23]: 1.02
- log2FC [24]: 0.905
- log2FC [25]: -1.46
- log2FC [26]: -0.602
- log2FC [27]: -0.637
- log2FC [28]: -0.847
- log2FC [29]: 0.9
- log2FC [30]: -0.786
- log2FC [31]: 1.53
- log2FC [32]: 1.63
